{
  "sequences": {"note": "Chains of the proteins cited; added tags and fusions are not shown.", "UniProt P03135": "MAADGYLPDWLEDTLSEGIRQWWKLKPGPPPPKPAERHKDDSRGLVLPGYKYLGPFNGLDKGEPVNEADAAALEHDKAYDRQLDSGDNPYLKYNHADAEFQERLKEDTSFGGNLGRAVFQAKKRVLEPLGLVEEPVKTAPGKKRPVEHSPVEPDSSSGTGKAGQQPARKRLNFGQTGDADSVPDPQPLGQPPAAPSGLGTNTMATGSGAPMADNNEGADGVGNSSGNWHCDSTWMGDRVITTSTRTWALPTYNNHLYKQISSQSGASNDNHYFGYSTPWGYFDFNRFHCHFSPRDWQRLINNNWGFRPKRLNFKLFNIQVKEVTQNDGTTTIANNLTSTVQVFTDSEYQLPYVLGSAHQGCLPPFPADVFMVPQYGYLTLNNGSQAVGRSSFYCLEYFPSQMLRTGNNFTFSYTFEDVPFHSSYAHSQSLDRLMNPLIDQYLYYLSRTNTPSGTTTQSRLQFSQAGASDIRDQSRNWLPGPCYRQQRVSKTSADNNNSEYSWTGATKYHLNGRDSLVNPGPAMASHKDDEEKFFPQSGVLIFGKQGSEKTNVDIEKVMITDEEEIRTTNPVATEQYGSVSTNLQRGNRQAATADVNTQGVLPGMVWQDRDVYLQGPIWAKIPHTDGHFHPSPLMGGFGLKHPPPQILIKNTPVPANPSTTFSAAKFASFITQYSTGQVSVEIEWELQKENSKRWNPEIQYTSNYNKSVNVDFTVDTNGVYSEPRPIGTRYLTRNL"},
  "source": "patent US20230391832A1",
  "about": "“CO[…]-BINDING POLYPEPTIDES AND METHODS OF USING THE SAME” (Isolere Bio, Inc., priority 2022, published 2023)",
  "target": "AAV2 capsids (adeno-associated virus serotype 2) (UniProt P03135)",
  "experiment": "ELISA on capsids (FIGS. 3A-D)",
  "note": "Results are given in words; binding and its absence hold for the method and conditions named. Some binding calls cover weakened binding; strength is not graded here. Where a sequence is shown, tags or fusion partners need not be part of it.",
  "data": [
    {"binder": "N-terminal His-tagged polycystic kidney domain 2 (PKD2 domain) from the AAV receptor (receptor) IAIVSPQFQEISLPTTSTVIDGSQSTDDDKIVQYHWEELKGPLREEKISEDTAILKLSKLVPGNYTFSLTVVDSDGATNSTTANLTVNKA", "values": [
      {"measurement": "binding", "result": "binds"}
    ]}
  ]
}
